Counter-ions that a name gives are not always drawn. This is one part of the list. The calls rarely recur for the same compound in another form.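 In K562 cells expressing nanoluciferase-fused kinases, luminescence was recorded at 4 h intervals between 2 and 18 h, normalized as percent of control with DMSO at 100% and a positive control at 0%. A significant (2 sigma) signal drop marks a time point as decreased. The authors' rule for a hit is not shown and takes in more than the number of time points.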
Tests used:
Experiment in all cases: number of time points (of 5) at which kinase-Nluc abundance scored as decreased, DMSO-normalised (count); higher = more persistent destabilization
Details in all cases: K562; 2-18 h
LMTK2 = LMTK2 (UniProt Q8IWU2)
LYN = LYN (UniProt P07948)
MAP2K1 = MAP2K1 (UniProt Q02750)
MAP2K2 = MAP2K2 (UniProt P36507)
MAP4K2 = MAP4K2 (UniProt Q12851)
MAPK1 = MAPK1 (UniProt P28482)
MAPK4 = MAPK4 (UniProt P31152)
MAPKAPK2 = MAPKAPK2 (UniProt P49137)
MKNK1 = MKNK1 (UniProt Q9BUB5)
NTRK2 = NTRK2 (UniProt Q16620)
NTRK3 = NTRK3 (UniProt Q16288)
PAK4 = PAK4 (UniProt O96013)
PBK = PBK (UniProt Q96KB5)
PDGFRB = PDGFRB (UniProt P09619)
PDK1 = PDK1 (UniProt Q15118)
PDPK1 = PDPK1 (UniProt O15530)
PIK4CA = PIK4CA (UniProt P42356)
PIK4CB = PIK4CB (UniProt Q9UBF8)
PLK1 = PLK1 (UniProt P53350)
PRKAA1 = PRKAA1 (UniProt Q13131)

Amino acid sequences for entries named in this document (tags omitted). A change or cut given only in a name is not applied to a line headed by its entry.
UniProt Q8IWU2: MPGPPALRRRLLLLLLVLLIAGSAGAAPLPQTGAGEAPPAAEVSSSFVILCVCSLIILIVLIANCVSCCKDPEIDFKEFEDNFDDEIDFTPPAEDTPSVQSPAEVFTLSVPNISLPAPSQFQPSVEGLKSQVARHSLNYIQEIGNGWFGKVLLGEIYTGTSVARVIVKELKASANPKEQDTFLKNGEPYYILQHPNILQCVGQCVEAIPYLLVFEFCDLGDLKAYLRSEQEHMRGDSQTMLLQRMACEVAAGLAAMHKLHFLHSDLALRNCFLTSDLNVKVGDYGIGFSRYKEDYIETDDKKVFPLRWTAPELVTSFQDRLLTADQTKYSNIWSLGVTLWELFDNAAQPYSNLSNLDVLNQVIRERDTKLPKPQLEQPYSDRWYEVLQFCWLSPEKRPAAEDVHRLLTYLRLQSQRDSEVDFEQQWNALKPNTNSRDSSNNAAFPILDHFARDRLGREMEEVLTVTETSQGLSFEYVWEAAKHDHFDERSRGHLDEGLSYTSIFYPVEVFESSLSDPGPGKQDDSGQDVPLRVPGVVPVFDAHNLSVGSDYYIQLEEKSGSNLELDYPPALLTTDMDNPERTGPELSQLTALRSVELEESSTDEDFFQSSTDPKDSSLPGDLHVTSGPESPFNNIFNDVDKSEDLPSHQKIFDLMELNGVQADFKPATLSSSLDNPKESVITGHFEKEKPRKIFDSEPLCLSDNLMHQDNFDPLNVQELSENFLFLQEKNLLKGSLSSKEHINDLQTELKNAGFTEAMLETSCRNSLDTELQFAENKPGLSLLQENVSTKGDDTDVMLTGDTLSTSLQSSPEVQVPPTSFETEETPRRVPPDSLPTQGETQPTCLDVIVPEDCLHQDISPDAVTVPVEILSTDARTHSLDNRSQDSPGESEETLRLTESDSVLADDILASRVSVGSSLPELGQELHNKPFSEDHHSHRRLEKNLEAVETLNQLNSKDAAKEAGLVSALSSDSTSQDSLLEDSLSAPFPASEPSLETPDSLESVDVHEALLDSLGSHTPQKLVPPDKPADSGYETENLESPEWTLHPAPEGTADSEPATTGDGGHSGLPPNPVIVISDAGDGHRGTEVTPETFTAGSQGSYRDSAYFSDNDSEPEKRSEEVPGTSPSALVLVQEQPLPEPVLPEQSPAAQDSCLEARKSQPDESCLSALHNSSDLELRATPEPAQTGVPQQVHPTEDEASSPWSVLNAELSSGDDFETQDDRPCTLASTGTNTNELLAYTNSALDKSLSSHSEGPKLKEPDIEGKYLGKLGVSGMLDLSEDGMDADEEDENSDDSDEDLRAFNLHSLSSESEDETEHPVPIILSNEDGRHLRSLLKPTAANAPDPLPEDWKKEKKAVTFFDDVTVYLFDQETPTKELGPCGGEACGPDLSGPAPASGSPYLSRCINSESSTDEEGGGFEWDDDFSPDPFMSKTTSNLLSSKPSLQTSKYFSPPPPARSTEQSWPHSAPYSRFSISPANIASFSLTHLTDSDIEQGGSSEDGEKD
UniProt Q12851: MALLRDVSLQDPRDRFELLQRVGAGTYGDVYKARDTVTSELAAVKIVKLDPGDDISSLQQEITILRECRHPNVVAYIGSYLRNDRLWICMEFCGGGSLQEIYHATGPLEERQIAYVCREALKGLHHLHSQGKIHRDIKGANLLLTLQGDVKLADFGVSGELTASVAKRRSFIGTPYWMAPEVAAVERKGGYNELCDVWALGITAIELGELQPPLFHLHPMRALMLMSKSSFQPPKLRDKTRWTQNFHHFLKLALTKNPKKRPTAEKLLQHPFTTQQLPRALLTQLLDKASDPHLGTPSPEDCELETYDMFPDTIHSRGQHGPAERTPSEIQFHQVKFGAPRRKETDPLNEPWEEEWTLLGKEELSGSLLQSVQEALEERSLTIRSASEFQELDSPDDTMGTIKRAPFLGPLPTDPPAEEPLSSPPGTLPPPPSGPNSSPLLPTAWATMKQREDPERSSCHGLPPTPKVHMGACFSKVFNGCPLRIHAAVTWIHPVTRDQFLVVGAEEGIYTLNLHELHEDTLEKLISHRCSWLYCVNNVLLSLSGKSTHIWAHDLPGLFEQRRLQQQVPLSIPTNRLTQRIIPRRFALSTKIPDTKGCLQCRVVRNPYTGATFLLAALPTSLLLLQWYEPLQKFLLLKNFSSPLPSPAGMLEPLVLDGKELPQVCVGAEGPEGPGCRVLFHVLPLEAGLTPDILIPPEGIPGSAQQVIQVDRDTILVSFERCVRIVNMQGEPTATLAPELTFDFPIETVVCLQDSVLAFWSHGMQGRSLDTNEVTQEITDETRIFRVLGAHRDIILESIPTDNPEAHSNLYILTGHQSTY
UniProt P28482, whole entry: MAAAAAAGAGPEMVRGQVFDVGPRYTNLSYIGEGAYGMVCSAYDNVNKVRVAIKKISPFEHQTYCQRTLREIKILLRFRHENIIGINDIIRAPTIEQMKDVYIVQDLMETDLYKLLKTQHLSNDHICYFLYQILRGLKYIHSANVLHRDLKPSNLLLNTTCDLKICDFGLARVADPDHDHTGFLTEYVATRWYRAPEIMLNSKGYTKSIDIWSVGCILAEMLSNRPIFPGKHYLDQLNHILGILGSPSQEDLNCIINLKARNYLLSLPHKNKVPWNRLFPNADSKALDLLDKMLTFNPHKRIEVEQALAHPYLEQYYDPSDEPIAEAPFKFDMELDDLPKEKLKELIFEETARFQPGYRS
UniProt P31152, whole entry: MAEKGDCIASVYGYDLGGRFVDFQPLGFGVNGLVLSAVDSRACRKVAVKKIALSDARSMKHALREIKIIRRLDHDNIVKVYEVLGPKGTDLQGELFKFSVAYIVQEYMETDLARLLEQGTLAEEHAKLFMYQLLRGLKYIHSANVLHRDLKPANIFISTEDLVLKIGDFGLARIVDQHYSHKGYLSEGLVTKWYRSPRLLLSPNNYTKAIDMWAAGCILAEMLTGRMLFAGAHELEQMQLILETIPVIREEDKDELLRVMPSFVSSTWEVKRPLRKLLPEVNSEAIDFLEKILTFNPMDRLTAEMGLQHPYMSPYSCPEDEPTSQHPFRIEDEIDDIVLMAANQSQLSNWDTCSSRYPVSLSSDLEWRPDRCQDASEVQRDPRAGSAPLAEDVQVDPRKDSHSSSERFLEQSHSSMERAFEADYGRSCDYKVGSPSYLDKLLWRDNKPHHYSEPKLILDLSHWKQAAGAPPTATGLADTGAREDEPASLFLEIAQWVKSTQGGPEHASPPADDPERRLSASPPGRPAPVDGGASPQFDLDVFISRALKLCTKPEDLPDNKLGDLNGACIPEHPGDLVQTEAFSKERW
UniProt P49137, whole entry, looked up: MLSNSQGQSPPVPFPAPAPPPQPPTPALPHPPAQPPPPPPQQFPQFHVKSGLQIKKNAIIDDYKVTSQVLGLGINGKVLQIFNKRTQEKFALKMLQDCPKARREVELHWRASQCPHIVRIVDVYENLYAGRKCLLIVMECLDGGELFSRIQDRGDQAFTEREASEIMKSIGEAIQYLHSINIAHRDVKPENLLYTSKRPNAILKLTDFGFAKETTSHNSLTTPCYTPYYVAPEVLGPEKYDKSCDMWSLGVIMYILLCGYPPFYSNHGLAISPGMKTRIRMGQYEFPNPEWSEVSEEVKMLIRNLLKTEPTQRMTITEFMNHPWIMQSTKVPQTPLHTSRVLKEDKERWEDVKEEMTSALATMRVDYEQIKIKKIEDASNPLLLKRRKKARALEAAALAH
UniProt Q16288, whole entry, looked up: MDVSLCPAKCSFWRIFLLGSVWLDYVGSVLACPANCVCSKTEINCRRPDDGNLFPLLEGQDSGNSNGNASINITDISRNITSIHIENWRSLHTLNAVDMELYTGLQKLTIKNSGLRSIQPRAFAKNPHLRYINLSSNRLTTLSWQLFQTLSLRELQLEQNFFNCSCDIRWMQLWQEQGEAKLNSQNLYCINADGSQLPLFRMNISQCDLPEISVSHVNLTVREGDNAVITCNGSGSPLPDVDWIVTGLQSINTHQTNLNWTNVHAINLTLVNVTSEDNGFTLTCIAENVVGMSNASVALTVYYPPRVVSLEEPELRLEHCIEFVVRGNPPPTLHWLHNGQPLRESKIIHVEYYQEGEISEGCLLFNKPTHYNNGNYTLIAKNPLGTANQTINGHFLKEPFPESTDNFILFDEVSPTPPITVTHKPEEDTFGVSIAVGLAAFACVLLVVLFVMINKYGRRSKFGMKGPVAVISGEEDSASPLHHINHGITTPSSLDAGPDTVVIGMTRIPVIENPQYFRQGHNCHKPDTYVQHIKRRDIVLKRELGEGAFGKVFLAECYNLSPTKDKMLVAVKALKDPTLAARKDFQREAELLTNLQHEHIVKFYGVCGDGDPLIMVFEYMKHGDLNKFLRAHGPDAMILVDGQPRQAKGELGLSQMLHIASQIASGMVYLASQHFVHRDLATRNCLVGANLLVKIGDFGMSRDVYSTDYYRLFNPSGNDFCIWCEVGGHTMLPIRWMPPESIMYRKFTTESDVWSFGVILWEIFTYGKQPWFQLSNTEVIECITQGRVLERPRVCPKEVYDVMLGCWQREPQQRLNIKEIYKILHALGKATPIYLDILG
UniProt Q96KB5: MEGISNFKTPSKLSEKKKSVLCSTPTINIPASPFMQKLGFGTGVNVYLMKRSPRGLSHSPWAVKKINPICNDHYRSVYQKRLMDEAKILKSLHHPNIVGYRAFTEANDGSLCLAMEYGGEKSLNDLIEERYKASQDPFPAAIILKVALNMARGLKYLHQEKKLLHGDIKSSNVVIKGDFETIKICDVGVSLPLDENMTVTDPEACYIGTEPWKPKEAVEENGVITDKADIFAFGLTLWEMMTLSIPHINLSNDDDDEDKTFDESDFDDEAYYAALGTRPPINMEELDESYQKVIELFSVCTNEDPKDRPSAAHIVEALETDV
UniProt P09619, whole entry: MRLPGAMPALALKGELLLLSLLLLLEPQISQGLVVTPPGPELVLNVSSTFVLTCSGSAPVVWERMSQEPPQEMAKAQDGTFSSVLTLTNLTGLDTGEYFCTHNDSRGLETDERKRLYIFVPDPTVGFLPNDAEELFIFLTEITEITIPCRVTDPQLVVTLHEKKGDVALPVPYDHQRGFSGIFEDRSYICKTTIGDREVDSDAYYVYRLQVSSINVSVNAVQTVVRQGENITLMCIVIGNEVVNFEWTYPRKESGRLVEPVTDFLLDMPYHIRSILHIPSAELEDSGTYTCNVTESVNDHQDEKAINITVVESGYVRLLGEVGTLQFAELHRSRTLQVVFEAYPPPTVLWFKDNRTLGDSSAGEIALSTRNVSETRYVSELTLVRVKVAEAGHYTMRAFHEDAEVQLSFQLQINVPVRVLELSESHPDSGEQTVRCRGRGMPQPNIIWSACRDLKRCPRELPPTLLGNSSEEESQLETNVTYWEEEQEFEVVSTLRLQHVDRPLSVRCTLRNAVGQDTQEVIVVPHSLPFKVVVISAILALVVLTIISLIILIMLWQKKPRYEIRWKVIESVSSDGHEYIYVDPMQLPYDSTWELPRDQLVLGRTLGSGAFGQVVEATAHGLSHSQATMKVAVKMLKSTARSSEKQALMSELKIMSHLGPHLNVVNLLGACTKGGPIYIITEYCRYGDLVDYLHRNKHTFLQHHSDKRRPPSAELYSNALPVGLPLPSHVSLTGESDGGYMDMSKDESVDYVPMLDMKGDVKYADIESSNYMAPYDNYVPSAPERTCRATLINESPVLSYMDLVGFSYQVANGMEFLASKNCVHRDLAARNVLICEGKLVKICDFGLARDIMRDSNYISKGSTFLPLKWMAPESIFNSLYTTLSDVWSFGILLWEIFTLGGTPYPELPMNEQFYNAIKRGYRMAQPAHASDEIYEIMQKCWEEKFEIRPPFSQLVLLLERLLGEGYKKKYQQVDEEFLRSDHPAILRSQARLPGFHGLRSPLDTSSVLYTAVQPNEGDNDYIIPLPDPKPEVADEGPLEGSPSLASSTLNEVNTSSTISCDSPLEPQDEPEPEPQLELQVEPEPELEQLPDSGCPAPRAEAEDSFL
UniProt O15530: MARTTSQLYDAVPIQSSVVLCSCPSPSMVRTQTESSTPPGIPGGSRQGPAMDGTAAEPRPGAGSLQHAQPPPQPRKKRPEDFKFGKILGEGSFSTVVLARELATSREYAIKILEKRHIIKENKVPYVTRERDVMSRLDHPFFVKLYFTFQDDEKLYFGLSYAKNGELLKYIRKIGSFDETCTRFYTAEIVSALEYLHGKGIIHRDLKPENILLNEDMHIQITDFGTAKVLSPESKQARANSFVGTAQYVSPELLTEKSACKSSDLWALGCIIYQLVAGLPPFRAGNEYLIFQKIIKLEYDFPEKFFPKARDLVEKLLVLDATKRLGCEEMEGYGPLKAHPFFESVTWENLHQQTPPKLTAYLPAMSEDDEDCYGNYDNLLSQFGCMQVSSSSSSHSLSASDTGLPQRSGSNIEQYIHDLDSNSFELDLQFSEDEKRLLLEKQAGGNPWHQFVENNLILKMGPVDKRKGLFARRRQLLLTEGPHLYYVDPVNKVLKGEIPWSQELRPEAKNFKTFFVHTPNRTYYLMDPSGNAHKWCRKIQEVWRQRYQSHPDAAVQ

| SMILES | number of time points (LMTK2) | number of time points (LYN) | number of time points (MAP2K1) | number of time points (MAP2K2) | number of time points (MAP4K2) | number of time points (MAPK1) | number of time points (MAPK4) | number of time points (MAPKAPK2) | number of time points (MKNK1) | number of time points (NTRK2) | number of time points (NTRK3) | number of time points (PAK4) | number of time points (PBK) | number of time points (PDGFRB) | number of time points (PDK1) | number of time points (PDPK1) | number of time points (PIK4CA) | number of time points (PIK4CB) | number of time points (PLK1) | number of time points (PRKAA1) |
| --- | --- | --- | --- | --- | --- | --- | --- | --- | --- | --- | --- | --- | --- | --- | --- | --- | --- | --- | --- | --- |
| O=c1nc(N2CCOCC2)oc2c(-c3cccc4c3sc3ccccc34)cccc12 (10 µM) | 1 | 0 | 0 | 0 | 0 | 0 | 0 | 0 | 0 | 0 | 0 | 0 | 0 | 0 | 0 | 0 | 0 | 0 | 0 | 0 |
| O=C(Nc1ccc(Cl)c(Cl)c1)Nc1ccc2nnsc2c1 (10 µM) | 0 | 0 | 0 | 0 | 0 | 0 | 0 | 0 | 0 | 0 | 0 | 0 | 0 | 0 | 0 | 0 | 0 | 0 | 0 | 0 |
| CCc1ccc(C(=O)COc2ccc(CC3SC(=O)NC3=O)cc2)nc1 (stereo not given) (10 µM) | 0 | 0 | 0 | 0 | 0 | 0 | 0 | 0 | 0 | 0 | 0 | 0 | 0 | 0 | 0 | 0 | 0 | 0 | 0 | 0 |
| CCCCCCCC/C=C\CCCCCCCC(=O)NCC(=O)O [N-Oleoyl glycine] (10 µM) | 0 | 0 | 0 | 0 | 0 | 0 | 0 | 0 | 0 | 0 | 0 | 0 | 0 | 0 | 0 | 0 | 0 | 0 | 5 | 0 |
| O=c1ccc2ccc(O)c(O)c2o1 [Daphnetin] (10 µM) | 0 | 0 | 0 | 0 | 0 | 0 | 0 | 0 | 0 | 0 | 0 | 0 | 0 | 0 | 0 | 0 | 0 | 0 | 0 | 0 |
| COc1ccc2c(c1OC)OC1c3ccc(O)cc3OCC21 (stereo not given) [Methylnissolin] (10 µM) | 0 | 0 | 0 | 0 | 0 | 0 | 0 | 0 | 0 | 0 | 0 | 0 | 0 | 0 | 0 | 0 | 0 | 0 | 0 | 0 |
| CC(=O)Nc1nc(C)c(-c2nc(N3CCCC(O)C3)no2)s1 (stereo not given) (10 µM) | 0 | 0 | 0 | 0 | 0 | 0 | 0 | 0 | 0 | 0 | 0 | 0 | 0 | 0 | 0 | 0 | 0 | 0 | 0 | 0 |
| COc1ccc(CCNc2ncc3c(=O)n(-c4cccc(F)c4)c(=O)[nH]c3n2)cc1OC (2 µM) | 0 | 0 | 0 | 0 | 0 | 0 | 0 | 0 | 0 | 0 | 0 | 0 | 0 | 0 | 0 | 0 | 0 | 0 | 0 | 0 |
| Nc1[nH]c(=O)nc2c1ncn2[C@@H]1O[C@H](CO)[C@@H](O)[C@H]1O [Crotonoside] (10 µM) | 0 | 0 | 0 | 0 | 0 | 0 | 0 | 0 | 0 | 0 | 0 | 0 | 0 | 0 | 0 | 0 | 0 | 0 | 0 | 0 |
| OCCN(CCO)c1ccc(C(c2ccc(Cl)cc2)c2ccc(N(CCO)CCO)cc2)cc1 (10 µM) | 0 | 0 | 0 | 2 | 0 | 3 | 0 | 0 | 3 | 2 | 4 | 0 | 0 | 3 | 0 | 0 | 1 | 0 | 0 | 0 |
| COc1c(C)c(C(=O)c2ccc(N)c(C(=O)O)c2)n2ccccc12 (10 µM) | 0 | 0 | 0 | 0 | 0 | 0 | 0 | 0 | 0 | 0 | 0 | 0 | 0 | 0 | 0 | 0 | 0 | 0 | 0 | 0 |
| Nc1cc(C(F)(F)F)c(-c2nc(N3CCOCC3)nc(N3CCOCC3)n2)cn1 [Bimiralisib] (10 µM) | 0 | 0 | 0 | 0 | 0 | 0 | 0 | 0 | 0 | 2 | 4 | 0 | 0 | 1 | 0 | 4 | 3 | 3 | 0 | 1 |
| CCn1nc(C2CCN(C(=O)CCO)CC2)nc1-c1cnc(N)c(-c2nnc(C(C)(C)C)o2)n1 (10 µM) | 0 | 0 | 0 | 0 | 0 | 0 | 0 | 0 | 0 | 0 | 0 | 0 | 0 | 0 | 0 | 0 | 0 | 0 | 0 | 0 |
| CC[C@H](Nc1ncnc2[nH]cnc12)c1oc2ccccc2c(=O)c1-c1cccc(F)c1 [Tenalisib] (10 µM) | 0 | 0 | 0 | 0 | 0 | 0 | 0 | 0 | 0 | 0 | 0 | 0 | 0 | 0 | 0 | 0 | 0 | 0 | 0 | 0 |
| Fc1c(Br)cccc1Nc1ncnc2cc3c(cc12)OCCO3 (2.5 µM) | 0 | 0 | 0 | 0 | 0 | 0 | 0 | 0 | 2 | 0 | 0 | 0 | 0 | 1 | 1 | 0 | 0 | 0 | 0 | 0 |
| CCOc1nc(Nc2ccc(C(=O)N3CCOCC3)cc2OC)nc2[nH]ccc12 [LRRK2 inhibitor 1] (2.5 µM) | 0 | 0 | 0 | 0 | 0 | 0 | 0 | 0 | 0 | 0 | 0 | 0 | 0 | 0 | 0 | 0 | 0 | 0 | 0 | 0 |
| COc1cc2ncnc(Nc3ccc(NC(=O)c4ccccc4)cc3)c2cc1OC [Aurora kinase inhibitor-2] (2.5 µM) | 0 | 0 | 0 | 0 | 0 | 0 | 0 | 0 | 0 | 0 | 0 | 0 | 0 | 0 | 0 | 1 | 0 | 0 | 0 | 0 |
| Oc1ccccc1C(=S)N1CCCC1 (10 µM) | 0 | 0 | 0 | 0 | 0 | 0 | 0 | 0 | 0 | 0 | 0 | 0 | 0 | 0 | 0 | 0 | 0 | 0 | 0 | 0 |
| Nc1cccc(S(=O)(=O)N2CCCN(S(=O)(=O)c3ccc4c(c3)OCCO4)CC2)c1 (10 µM) | 0 | 0 | 0 | 0 | 0 | 0 | 0 | 0 | 0 | 0 | 0 | 0 | 0 | 0 | 0 | 0 | 0 | 0 | 0 | 0 |
| Nc1nc2cc(-c3ccc4ncc(C(=O)N5CCOCC5)n4c3)ccc2o1 [Serabelisib] (10 µM) | 0 | 0 | 0 | 0 | 0 | 0 | 0 | 0 | 0 | 0 | 0 | 0 | 0 | 0 | 0 | 0 | 0 | 0 | 0 | 0 |
| N=C(N)NC(=N)NCCc1ccccc1 [Phenformin (hydrochloride)] (10 µM) | 0 | 0 | 0 | 0 | 0 | 0 | 0 | 0 | 0 | 0 | 0 | 0 | 0 | 0 | 0 | 0 | 0 | 0 | 0 | 0 |
| C=CC(=O)N1CCC(Oc2cc3c(Nc4ccc(Cl)c(Cl)c4F)ncnc3cc2OC)CC1 [Poziotinib] (2.5 µM) | 0 | 0 | 0 | 0 | 0 | 0 | 0 | 0 | 0 | 0 | 0 | 0 | 0 | 0 | 0 | 0 | 0 | 0 | 0 | 0 |
| c1ccc(-c2nn3c(c2-c2ccnc4cc(OCCN5CCOCC5)ccc24)CCC3)nc1 (10 µM) | 0 | 0 | 0 | 0 | 0 | 0 | 0 | 0 | 0 | 0 | 0 | 0 | 0 | 0 | 0 | 0 | 0 | 0 | 0 | 0 |
| COC(=O)N[C@@H](C)CNc1nccc(-c2cn(C(C)C)nc2-c2cc(Cl)cc(NS(C)(=O)=O)c2F)n1 [Encorafenib] (10 µM) | 0 | 0 | 0 | 0 | 0 | 0 | 0 | 0 | 0 | 0 | 0 | 0 | 0 | 0 | 0 | 0 | 0 | 0 | 0 | 0 |
| [O-][n+]1cccc(-c2nc3c(Cl)cccc3cc2[C@@H](Nc2ncnc3cccnc23)C(F)(F)F)c1 [Seletalisib] (10 µM) | 0 | 0 | 0 | 0 | 0 | 0 | 0 | 0 | 0 | 0 | 0 | 0 | 0 | 0 | 0 | 0 | 0 | 0 | 0 | 0 |

Given with tabs: entries from further up.
SMILES	number of time points (LMTK2)	number of time points (LYN)	number of time points (MAP2K1)	number of time points (MAP2K2)	number of time points (MAP4K2)	number of time points (MAPK1)	number of time points (MAPK4)	number of time points (MAPKAPK2)	number of time points (MKNK1)	number of time points (NTRK2)	number of time points (NTRK3)	number of time points (PAK4)	number of time points (PBK)	number of time points (PDGFRB)	number of time points (PDK1)	number of time points (PDPK1)	number of time points (PIK4CA)	number of time points (PIK4CB)	number of time points (PLK1)	number of time points (PRKAA1)
COc1c(C)c(C(=O)c2ccc(N)c(C(=O)O)c2)n2ccccc12 (10 µM)	0	0	0	0	0	0	0	0	0	0	0	0	0	0	0	0	0	0	0	0
COC(=O)N[C@@H](C)CNc1nccc(-c2cn(C(C)C)nc2-c2cc(Cl)cc(NS(C)(=O)=O)c2F)n1 [Encorafenib] (10 µM)	0	0	0	0	0	0	0	0	0	0	0	0	0	0	0	0	0	0	0	0

— the supplement of paper PMC12823440, “Inhibitors supercharge kinase turnover through native proteolytic circuits” (Nature, 2025)
